# According to PubChem BioAssay AID493014 (National Center for Advancing Translational Sciences (NCATS), 2011):
# The other results are listed elsewhere or left out. Shown are side measurements of this screen, not its main read-out; they come without a call. The list favours compounds with an active or inconclusive main result. The note in brackets gives the kind of curve behind each potency; many fits are weak.
# Test: qHTS Assay to Find Inhibitors of Chronic Active B-Cell Receptor Signaling
# Settings: ABC-DLBCL IkBa-CBG/CBR reporter, luminescence ratio (green luciferase fused to IkBa over red control in TMD8 lymphoma cells), 4 h
# How it was run: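 Compounds up to 46 uM were incubated four hours with TMD8 cells whose green CBG68 luciferase is fused to IkappaBalpha; red CBR luminescence normalised the signal, and concentration-effect curves were fitted to fusion, red and ratio data.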
# [1] = measured here: CBR red luminescence, cell number
# [2] = measured here: IkBa-CBG green luminescence
Structure (SMILES),AC50 [1],AC50 [2]
COc1ccc(C(=O)OCCc2ccc(O)cc2)cc1,"23.1 µM [rising, partial curve, poor fit]",
CCCC(=O)N1CCN(c2nc3ccc(Cl)cc3s2)CC1,"5.62 µM [rising, full curve, poor fit]",
S=C1CCC(c2ccc(Cl)cc2)=NN1c1ccccc1,"1.26 µM [rising, full curve]",
COc1ccc(OC)c(-n2c(C)ccc2-c2ccc(S(C)(=O)=O)cc2)c1,"29.1 µM [rising, single point]",
O=C(N/N=C/c1c(O)n(Cc2ccco2)c(=O)[nH]c1=O)c1ccccc1,"3.16 µM [falling, full curve]",
Cn1c(C(=O)OCC(=O)NCC2CCCO2)cc2sccc21 (configuration not stated),"23.1 µM [rising, partial curve, poor fit]",
Cc1[nH]c2ccccc2c1C(c1ccccn1)c1c(C)[nH]c2ccccc12,"7.31 µM [falling, partial curve, poor fit]",
NC(=O)CC(NC(=O)Cc1ccc(Br)cc1)c1ccc(N2CCc3ccccc3C2)c([N+](=O)[O-])c1 (configuration not stated),"35.5 µM [falling, single point]",
COCCn1c(SCC(=O)Nc2cccnc2Cl)nc2cc(Cl)ccc2c1=O,"23.1 µM [rising, single point]",
CCOC(=O)Cn1cc(/C=C(\C#N)C(=O)N2CCOCC2)c2ccccc21,"11.2 µM [rising, partial curve]",
COc1ccccc1CC(NC(C)=O)C(=O)NC1CCN(C(=O)NCc2ccccc2)CC1 (configuration not stated),"6.31 µM [rising, full curve, poor fit]",
O=C(COc1ccccc1)NC1CC(=O)N(c2ccc3c(c2)OCCO3)C1 (configuration not stated),"17.8 µM [falling, single point]",
Cc1[nH]c2ccc(C(=O)N3CCN(c4ccc(F)cc4)CC3)cc2c1C,"6.31 µM [falling, partial curve, poor fit]",
O=C(Nc1nc2ccc(Cl)cc2s1)c1cccc(N2C(=O)CCC2=O)c1,"10.3 µM [falling, single point]",
Cc1ccc(-c2ccc(NC(=O)C3C4C=CC(C4)C3C(=O)O)cc2)o1 (configuration not stated),"20.6 µM [falling, partial curve, poor fit]",
CC(=O)N(CCCN(C)C)Cc1ccccn1,"3.98 µM [rising, full curve]",
CCCCN(C(=O)c1ccc2c(c1)OCO2)c1c(N)n(CC(C)C)c(=O)[nH]c1=O,"3.66 µM [rising, partial curve, poor fit]",
O=C(CCc1ccccc1)Nc1ccc2ccccc2n1,"1.41 µM [falling, full curve]",
O=C(CSc1nc(Cc2ccccc2)nc2ccccc12)Nc1ccc2c(c1)OCCO2,"35.5 µM [falling, partial curve, poor fit]",
CCCn1c(SCC(=O)N2CCCc3ccccc32)nnc1-c1ccco1,"5.01 µM [falling, partial curve]",
COc1ccc(/C=N/OCC(=O)NCc2cccs2)c(OC)c1,"29.1 µM [rising, single point]",
COc1ccc(C2=NN(C(=O)CSc3ncccn3)C(c3ccc(C)cc3)C2)cc1 (configuration not stated),"7.31 µM [rising, partial curve, poor fit]",

Structure (SMILES),AC50 [1],AC50 [2]
CN1CCN(CC(=O)Nc2ccc(OCc3ccccc3)cc2)CC1,"0.411 µM [falling, full curve, poor fit]",
O=C(N/N=C\c1ccccc1F)c1ccc(-c2ccccc2)cc1,"3.55 µM [falling, single point]",
Cc1cccc(NC2SC(=O)N(c3ccccc3)C2=O)c1 (configuration not stated),"29.1 µM [falling, partial curve, poor fit]",
CCc1c(C)nc2cc(-c3ccc(OC)c(OC)c3)nn2c1NCC1CC1,"13 µM [falling, partial curve, poor fit]",
O=C(NCCc1cn2ccsc2n1)C1CCCCC1,"4.11 µM [rising, partial curve, poor fit]",
CCOc1ccc(N(CC(=O)NCCSCc2ccccc2)S(=O)(=O)c2ccccc2)cc1,"6.31 µM [rising, partial curve, poor fit]",
Cc1cc2ccccn2c1C(=O)c1nc(NCc2ccco2)ncc1Cl,"3.55 µM [rising, full curve, poor fit]",
CCn1ncc(Cl)c1C(=O)Nc1ccc2c(c1)CCC2,"2 µM [rising, full curve]",
O=C1CC(/C=C/c2ccccc2)=Nc2ccccc2N1,"7.08 µM [falling, full curve]",
Cc1ccc2c(c1)=C(c1ccccc1)N(O)CC(=O)N=2,"35.5 µM [rising, single point]",
CCOC(=O)Nc1ccc(S(=O)(=O)Nn2cnnc2)cc1,"14.1 µM [rising, single point]",
COc1cc(/C=C(\C#N)c2nc3ccccc3o2)ccc1O,"22.4 µM [falling, single point]","6.31 µM [rising, partial curve, poor fit]"
O=C(CNc1ccccc1)N/N=C/c1ccc([N+](=O)[O-])o1,"11.2 µM [falling, partial curve, poor fit]",
Cc1nn2c(=O)cc(COC(=O)c3c(F)cccc3Cl)nc2s1,"13 µM [falling, partial curve]",
CSc1nc2c(c(=O)n1Cc1ccccc1)SC(C)C2 (configuration not stated),"6.51 µM [falling, single point]",
Cc1ccccc1N=C/C=C1/C=C(c2ccccc2)OC(C)(C)O1,"16.4 µM [falling, partial curve]",
Cc1cccc(CN2C(=O)N/C(=C/c3ccc(C)s3)C2=O)c1,"0.517 µM [falling, full curve]",
CCN(CC)S(=O)(=O)c1ccc(-c2nnc(SCC(=O)Nc3cc(OC)cc(OC)c3)o2)cc1,"0.116 µM [rising, full curve, poor fit]",
Cc1ccc(N(Cc2cc(=O)[nH]c3ccccc23)C(=O)c2ccco2)cc1,"29.1 µM [falling, single point]",
CCCOC(=O)c1c(N)sc(C(=O)OCC)c1C,"7.31 µM [rising, full curve, poor fit]",
CCc1ccc(OCC2c3cc(OC)c(OC)cc3CCN2C(=O)COc2ccccc2)cc1 (configuration not stated),"22.4 µM [falling, single point]",
CC(C)N1CCC(=NNC(=O)c2cccs2)CC1,"14.1 µM [falling, partial curve, poor fit]",

Structure (SMILES),AC50 [1],AC50 [2]
Cc1ccc(Cn2nnc3c(=O)n(CC(=O)NCc4ccccc4)cnc32)cc1,"25.1 µM [rising, single point]","25.1 µM [falling, single point]"
Cc1cccc(C(=O)c2c[nH]cc2-c2ccccc2)c1,"5.17 µM [rising, partial curve, poor fit]",
CCOC(=O)[C@H]1[C@H]2COc3ccccc3[C@@H]2N2C(=O)c3cc(C)ccc3NC(=O)[C@@]12C,"29.1 µM [falling, single point]",
COc1cc(/C=C2\C(=N)N3N=C(S(C)(=O)=O)SC3=NC2=O)ccc1OS(=O)(=O)c1ccc(C)cc1,"0.562 µM [falling, full curve, poor fit]",
O=C(COc1cccc2ccccc12)Nc1nc2ccccc2[nH]1,"16.4 µM [falling, single point]",
CCOc1cccc(=O)c2c(C)n(CC3CCCO3)c(C)c12 (configuration not stated),"4.47 µM [rising, full curve, poor fit]",
Cc1cc(=O)[nH]c(=S)[nH]1,"3.66 µM [rising, partial curve, poor fit]",
O=C(Nc1cc(C(F)(F)F)ccc1N1CCOCC1)c1ccccc1,"0.184 µM [falling, full curve, poor fit]",
CC(=O)N1CCc2cc(S(=O)(=O)CCC(=O)NCc3ccc(Cl)cc3)ccc21,"0.631 µM [falling, partial curve, poor fit]",
CCc1ccc(NC(=O)CSC2=Nc3ccccc3C3=NC(CC(=O)NCc4ccccc4)C(=O)N23)cc1 (configuration not stated),"15.8 µM [falling, single point]",
COC(=O)CCN(c1ccccc1)S(=O)(=O)c1cc(-c2cc(C)no2)ccc1OC,"4.47 µM [falling, partial curve, poor fit]",
CCCCCc1ccc(-c2cn(Cc3ccc(C)cc3)nn2)cc1,"6.31 µM [falling, single point]",
O=Cc1cn(-c2ccc(F)cc2)c2ccccc12,"14.6 µM [rising, partial curve, poor fit]",
CCCc1cc(C(=O)Nc2nccs2)cs1,"10.3 µM [falling, partial curve, poor fit]",
O=C(O)CN1C(=O)/C(=C/c2cccc(Cl)c2)Oc2ccccc21,"0.316 µM [rising, full curve]",
Nc1nc(-c2ccc(NC(=O)c3ccco3)cc2)cs1,"6.31 µM [falling, full curve]",
CCCC(c1nnnn1Cc1ccc(F)cc1)N1CCN(C2CCCCC2)CC1 (configuration not stated),"35.5 µM [falling, single point]",
Cn1ccc2c(OCC(=O)Nc3cc(C(F)(F)F)ccc3Cl)cccc2c1=O,"14.1 µM [rising, single point]",
COCCCNCC(O)COc1ccccc1F (configuration not stated),"3.98 µM [falling, full curve]",
COc1ccc(/C=C/C(=O)Nc2ccccc2C(=O)O)cc1,"0.501 µM [falling, full curve]",
CN(C)CCNC(=O)c1coc(=O)c(Br)c1,"2.82 µM [rising, partial curve, poor fit]",

# Single entries from above:
# In AC50 [1], CCCCCc1ccc(-c2cn(Cc3ccc(C)cc3)nn2)cc1 shows 6.31 µM [falling, single point]
# In AC50 [1], Cc1cccc(C(=O)c2c[nH]cc2-c2ccccc2)c1 shows 5.17 µM [rising, partial curve, poor fit]
# In AC50 [1], O=C(Nc1cc(C(F)(F)F)ccc1N1CCOCC1)c1ccccc1 shows 0.184 µM [falling, full curve, poor fit]
# In AC50 [1], CCOC(=O)[C@H]1[C@H]2COc3ccccc3[C@@H]2N2C(=O)c3cc(C)ccc3NC(=O)[C@@]12C shows 29.1 µM [falling, single point]
